Experimental data from patent publication US20110160280A1, “CANCER-RELATED GENES, CDCA5, EPHA7, STK31 AND WDHD1” (Oncotherapy Science, Inc., priority 2007, published 2011).
Entries after “also recorded” stand apart in the source; their conditions may differ. For at least one compound, name, drawing or mass did not settle the structure.

Legend:
PI3K = conditions: cited from earlier work
WDHD1 = WDHD1 protein level after PI3K inhibition, western blotting; assay type: cell-based, human; conditions: 0-40 μmol/L for 24 hours

SMILES: O=c1cc(N2CCOCC2)oc2c(-c3ccccc3)cccc12 [LY294002]
- cell proliferation (PI3K; Gao N et al. 2004): decreased the cell proliferation
- G1 cell cycle arrest (PI3K; Suzuki C et al. 2005, Gao N et al. 2004): induces the G1 arrest of cells; also recorded: induced the G1 cell cycle arrest
- AKT phosphorylation (PI3K; Suzuki C et al. 2005): decreases AKT phosphorylation
- phosphorylated WDHD1 (WDHD1): significantly decreased
- total amount of WDHD1 protein (WDHD1): significantly decreased
